# Residue numbers refer to the chain shown, from its start. The list shows a part of the results. For some of these results: At the low end of the ranking, values are background and their order means little. For some of these results: Construct or isoform of the protein are uncertain.
# Key:
# Details in all cases: yeast three-hybrid, YBZ-1, SC-Leu-His + 0.5 mM 3-AT, 4 days
# [1] = target: T1, PUM1 PUF domain R1-QFR R2-VFQ R7-NPG S863Q + R864F + Q867R + N899V + Y900F + S1079N + N1080P + E1083G (UniProt Q14671)
# T1 sequence: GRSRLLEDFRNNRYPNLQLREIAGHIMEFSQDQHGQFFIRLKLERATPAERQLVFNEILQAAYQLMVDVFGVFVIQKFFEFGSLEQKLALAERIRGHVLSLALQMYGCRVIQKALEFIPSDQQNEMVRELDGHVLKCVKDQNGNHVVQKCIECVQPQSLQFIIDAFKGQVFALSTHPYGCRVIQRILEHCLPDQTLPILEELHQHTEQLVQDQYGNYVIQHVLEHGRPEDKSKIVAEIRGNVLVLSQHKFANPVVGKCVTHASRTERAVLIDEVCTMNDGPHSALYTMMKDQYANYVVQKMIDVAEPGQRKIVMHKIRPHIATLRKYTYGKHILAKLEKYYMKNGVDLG
# [2] = target: T2, PUM1 PUF domain R2-VFQ R3-THE R4-TFR N899V + Y900F + C935T + R936H + Q939E + N971T + H972F + Q975R (UniProt Q14671)
# T2 sequence: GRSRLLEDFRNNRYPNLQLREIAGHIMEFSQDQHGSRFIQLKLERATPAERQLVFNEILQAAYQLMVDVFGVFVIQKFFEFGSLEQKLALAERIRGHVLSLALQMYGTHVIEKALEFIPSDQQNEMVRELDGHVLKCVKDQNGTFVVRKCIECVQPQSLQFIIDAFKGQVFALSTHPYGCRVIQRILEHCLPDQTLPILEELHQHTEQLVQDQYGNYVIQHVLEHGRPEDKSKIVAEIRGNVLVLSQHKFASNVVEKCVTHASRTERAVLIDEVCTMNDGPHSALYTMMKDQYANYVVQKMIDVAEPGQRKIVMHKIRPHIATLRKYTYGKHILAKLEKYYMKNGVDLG
# [3] = target: T3, PUM1 PUF domain R3-THE R4-TFR C935T + R936H + Q939E + N971T + H972F + Q975R (UniProt Q14671)
# T3 sequence: T2 sequence with V72N, F73Y
# [4] = target: T4, PUM1 PUF domain R3-THE R4-TFR R7-NPG C935T + R936H + Q939E + N971T + H972F + Q975R + S1079N + N1080P + E1083G (Homo sapiens) (UniProt Q14671)
# T4 sequence: T2 sequence with V72N, F73Y, S252N, N253P, E256G
# [5] = target: T5, PUM1 PUF domain R5-PHQ R6-SWD C1007P + R1008H + N1043S + Y1044W + Q1047D (UniProt Q14671)
# T5 sequence: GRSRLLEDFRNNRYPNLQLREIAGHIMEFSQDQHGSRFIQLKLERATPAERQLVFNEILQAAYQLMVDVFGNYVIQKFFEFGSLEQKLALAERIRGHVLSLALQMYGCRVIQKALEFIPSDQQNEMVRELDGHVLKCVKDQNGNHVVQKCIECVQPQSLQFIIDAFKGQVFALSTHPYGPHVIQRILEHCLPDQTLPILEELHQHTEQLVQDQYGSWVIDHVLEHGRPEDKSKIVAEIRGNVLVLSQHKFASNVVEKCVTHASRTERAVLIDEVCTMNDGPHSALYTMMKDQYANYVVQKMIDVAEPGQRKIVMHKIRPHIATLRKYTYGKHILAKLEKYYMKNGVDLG
# [6] = target: T6, PUM1 PUF domain R3-THE R4-TFR R7-NPG C935T + R936H + Q939E + N971T + H972F + Q975R + S1079N + N1080P + E1083G (UniProt Q14671)
# T6 sequence: T2 sequence with V72N, F73Y, S252N, N253P, E256G
# [7] = target: T7, PUM1 PUF domain R6-SWD R7-NPG N1043S + Y1044W + Q1047D + S1079N + N1080P + E1083G (Homo sapiens) (UniProt Q14671)
# T7 sequence: T5 sequence with P180C, H181R, S252N, N253P, E256G
Sequence,binding signal (log2 enrichment (interaction score)) [1],binding signal (log2 enrichment (interaction score)) [2],binding signal (log2 enrichment (interaction score)) [3],binding signal (log2 enrichment (interaction score)) [4],binding signal (log2 enrichment (interaction score)) [5],binding signal (log2 enrichment (interaction score)) [6],binding signal (log2 enrichment (interaction score)) [7]
GGCUAGAACUAGUGGAUCCCCCGGCGCCCGGCGGCUCGAGCCCGGGUAAGAUGACUUAGUCUGCAUGCCGCCGGGCGCCAUGCCUGCAGGUCGACUCUAGAAAACAUG,-2.06,-4.35,< -6.53,,,,
GGCUAGAACUAGUGGAUCCCCCGGCGCCCGGCGGCUCGAGCCCGGGUAAGUUGAAGAAGUCUGCAUGCCGCCGGGCGCCAUGCCUGCAGGUCGACUCUAGAAAACAUG,-5.92,-5.49,-7.77,-1.34,-9.51,,
GGCUAGAACUAGUGGAUCCCCCGGCGCCCGGCGGCUCGAGCCCGGGUAAGAUUAAGGUGUCUGCAUGCCGCCGGGCGCCAUGCCUGCAGGUCGACUCUAGAAAACAUG,-5.24,-5.54,-6.27,,,,
GGCUAGAACUAGUGGAUCCCCCGGCGCCCGGCGGCUCGAGCCCGGGUAAGUUGAAAAAGUCUGCAUGCCGCCGGGCGCCAUGCCUGCAGGUCGACUCUAGAAAACAUG,-4.41,-5.62,,,-7.78,-2.32,-1.03
GGCUAGAACUAGUGGAUCCCCCGGCGCCCGGCGGCUCGAGCCCGGGUAAGGUAAAGAAGUCUGCAUGCCGCCGGGCGCCAUGCCUGCAGGUCGACUCUAGAAAACAUG,-5.36,-6.45,-5.77,-0.94,,,
GGCUAGAACUAGUGGAUCCCCCGGCGCCCGGCGGCUCGAGCCCGGGUAAGUGGAAAUUGUCUGCAUGCCGCCGGGCGCCAUGCCUGCAGGUCGACUCUAGAAAACAUG,-3.11,< -5.77,-7.84,-1.28,-2.12,,
GGCUAGAACUAGUGGAUCCCCCGGCGCCCGGCGGCUCGAGCCCGGGUAAGUUUACGGCGUCUGCAUGCCGCCGGGCGCCAUGCCUGCAGGUCGACUCUAGAAAACAUG,< -6.43,-4.4,-6.39,-0.32,,,
GGCUAGAACUAGUGGAUCCCCCGGCGCCCGGCGGCUCGAGCCCGGGUAAGUUGACGAAGUCUGCAUGCCGCCGGGCGCCAUGCCUGCAGGUCGACUCUAGAAAACAUG,-5.72,-4.92,-6.93,,-8,-2.25,
GGCUAGAACUAGUGGAUCCCCCGGCGCCCGGCGGCUCGAGCCCGGGUAAGUAGACAUAGUCUGCAUGCCGCCGGGCGCCAUGCCUGCAGGUCGACUCUAGAAAACAUG,-5.55,-5.92,< -7.57,,,,
GGCUAGAACUAGUGGAUCCCCCGGCGCCCGGCGGCUCGAGCCCGGGUAAGGAUAGCUAGUCUGCAUGCCGCCGGGCGCCAUGCCUGCAGGUCGACUCUAGAAAACAUG,-5.94,-5.58,-7.27,,,,
